# The list shows a part of the results, in another mix than the full data. For some assays here: At the low end of the ranking the order means little. The list shows a part of the results. For some assays here: The exact form of the protein is not confirmed.
# Chains of the proteins cited; added tags and fusions are not shown. Lines headed by an entry give the natural chain unless they say otherwise; changes in a name come on top.
# UniProt P50549: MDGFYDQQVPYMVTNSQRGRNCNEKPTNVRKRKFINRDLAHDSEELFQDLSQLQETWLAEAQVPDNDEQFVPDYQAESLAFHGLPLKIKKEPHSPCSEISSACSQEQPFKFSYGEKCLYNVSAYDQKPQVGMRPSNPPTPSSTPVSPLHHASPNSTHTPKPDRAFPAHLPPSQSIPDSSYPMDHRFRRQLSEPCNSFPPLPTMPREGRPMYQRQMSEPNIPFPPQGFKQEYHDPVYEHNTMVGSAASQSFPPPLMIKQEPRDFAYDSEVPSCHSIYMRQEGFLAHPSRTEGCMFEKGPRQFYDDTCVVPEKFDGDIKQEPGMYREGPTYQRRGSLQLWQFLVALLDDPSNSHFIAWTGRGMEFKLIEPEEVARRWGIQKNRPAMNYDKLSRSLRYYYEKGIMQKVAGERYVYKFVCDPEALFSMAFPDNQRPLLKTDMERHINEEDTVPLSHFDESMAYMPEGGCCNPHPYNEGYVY
# UniProt P32519: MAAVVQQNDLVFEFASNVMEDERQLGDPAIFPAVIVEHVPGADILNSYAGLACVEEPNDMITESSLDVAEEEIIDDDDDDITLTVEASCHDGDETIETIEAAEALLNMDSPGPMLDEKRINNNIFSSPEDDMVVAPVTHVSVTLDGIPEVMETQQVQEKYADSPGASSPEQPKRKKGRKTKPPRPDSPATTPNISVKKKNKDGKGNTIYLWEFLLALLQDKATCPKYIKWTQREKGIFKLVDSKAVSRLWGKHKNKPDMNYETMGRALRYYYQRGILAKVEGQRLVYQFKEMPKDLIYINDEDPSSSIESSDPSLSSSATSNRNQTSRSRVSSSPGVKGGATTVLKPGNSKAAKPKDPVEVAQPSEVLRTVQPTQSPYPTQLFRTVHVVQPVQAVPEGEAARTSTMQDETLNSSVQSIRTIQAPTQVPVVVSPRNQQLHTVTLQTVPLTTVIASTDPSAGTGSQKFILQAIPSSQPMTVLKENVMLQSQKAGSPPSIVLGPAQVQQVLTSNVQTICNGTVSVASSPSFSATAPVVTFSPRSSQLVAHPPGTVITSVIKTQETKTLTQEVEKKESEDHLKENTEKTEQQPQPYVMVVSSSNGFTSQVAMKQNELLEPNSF
# How the values were obtained:
# Assay in all cases: DAPPL (digital affinity profiling via proximity ligation, sequencing)
# Conditions in all cases: 10 mM Tris-HCl pH 7.5, 50 mM NaCl, 1 mM DTT, 4% glycerol, room temperature, 30 min; GST-TFs on glutathione beads, 16-mer random dsDNA library, 0.1% …; high values mean tight binding; double strand, one strand shown; scale: fold enrichment (6-mer frequency, TF over GST control)
# ELK4 = target: T1, ELK4 (UniProt P28324-2)
# T1 sequence: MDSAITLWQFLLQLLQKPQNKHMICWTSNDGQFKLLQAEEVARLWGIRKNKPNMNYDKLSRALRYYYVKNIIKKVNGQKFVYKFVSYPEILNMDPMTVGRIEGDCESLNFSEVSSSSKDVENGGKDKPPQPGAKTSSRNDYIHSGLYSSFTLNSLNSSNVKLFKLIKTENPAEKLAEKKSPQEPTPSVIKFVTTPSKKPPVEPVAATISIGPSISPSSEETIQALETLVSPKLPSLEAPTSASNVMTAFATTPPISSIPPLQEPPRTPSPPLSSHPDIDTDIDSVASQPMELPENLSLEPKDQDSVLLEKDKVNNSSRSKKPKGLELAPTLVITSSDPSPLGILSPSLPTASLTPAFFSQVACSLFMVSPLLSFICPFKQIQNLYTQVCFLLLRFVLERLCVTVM
# ETV4 = target: T2, ETV4 (UniProt P43268)
# T2 sequence: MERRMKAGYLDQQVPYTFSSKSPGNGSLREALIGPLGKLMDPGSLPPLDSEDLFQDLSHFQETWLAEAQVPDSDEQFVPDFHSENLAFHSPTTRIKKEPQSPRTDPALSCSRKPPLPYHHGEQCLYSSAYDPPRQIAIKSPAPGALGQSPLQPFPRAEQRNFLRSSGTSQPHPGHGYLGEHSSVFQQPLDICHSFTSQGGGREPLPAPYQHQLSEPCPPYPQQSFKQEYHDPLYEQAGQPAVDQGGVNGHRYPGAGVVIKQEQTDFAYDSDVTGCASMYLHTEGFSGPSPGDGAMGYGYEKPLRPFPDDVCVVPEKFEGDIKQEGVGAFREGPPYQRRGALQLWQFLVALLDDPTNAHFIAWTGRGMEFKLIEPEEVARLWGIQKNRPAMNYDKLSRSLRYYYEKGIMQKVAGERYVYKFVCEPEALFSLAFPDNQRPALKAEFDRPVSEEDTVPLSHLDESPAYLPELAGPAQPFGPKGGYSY
# ETV1 = ETV1 (UniProt P50549)
# ERF = target: T3, ERF (UniProt P50548)
# T3 sequence: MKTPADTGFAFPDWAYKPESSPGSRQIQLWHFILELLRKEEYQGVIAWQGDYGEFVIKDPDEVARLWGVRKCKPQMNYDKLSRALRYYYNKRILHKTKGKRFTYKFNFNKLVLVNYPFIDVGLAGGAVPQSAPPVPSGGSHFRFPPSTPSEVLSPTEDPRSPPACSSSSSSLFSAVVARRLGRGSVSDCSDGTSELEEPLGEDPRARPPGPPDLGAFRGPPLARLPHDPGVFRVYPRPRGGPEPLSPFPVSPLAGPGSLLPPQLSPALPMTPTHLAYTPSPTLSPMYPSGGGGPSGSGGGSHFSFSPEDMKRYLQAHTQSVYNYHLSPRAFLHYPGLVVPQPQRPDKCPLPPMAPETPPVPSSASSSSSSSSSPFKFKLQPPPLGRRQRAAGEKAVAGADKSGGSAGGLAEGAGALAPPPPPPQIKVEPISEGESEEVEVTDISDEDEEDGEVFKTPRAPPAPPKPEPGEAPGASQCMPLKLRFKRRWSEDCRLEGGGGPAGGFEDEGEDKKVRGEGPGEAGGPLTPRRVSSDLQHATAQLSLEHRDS
# ELF1 = ELF1 (UniProt P32519)
Sequence,binding signal (ELK4),binding signal (ETV4),binding signal (ETV1),binding signal (ERF),binding signal (ELF1)
TTTTGA,1.22,1.14,1.13,,
AACGAA,1.13,1.14,1.09,,
AAGTCC,1.25,1.25,1.26,,
ATTCAG,1.08,1.14,1.07,,
CTAATA,1.1,1.13,1.22,1.27,
TAGTCT,0.947,1.13,1.01,1.17,
TCTACG,1.36,1.32,1.44,,
ATGGGT,1.33,1.33,1.21,,
AACGTC,0.959,1.09,1.11,1.01,1.05
GGTATA,1.1,1.11,1.11,,
ACGATC,0.964,1.05,1.05,1.16,1.09
GAACAT,0.978,1,0.989,,
GGCTCT,1.22,1.25,1.42,,
GCTTCG,1.38,1.32,1.29,,
TCTGCT,1.57,1.28,1.32,,
CTAAAA,1.21,1.09,1.19,,
AATCCC,1.28,1.37,1.42,,
TGCGCT,1.46,1.25,1.17,,
CTGCCC,1.42,1.31,1.2,,
TGAATT,1.01,1.19,1.23,,
TACATG,1.24,1.29,1.21,1.34,
GAATAA,1.04,1.06,1.03,,
CCTTTC,1.64,1.63,1.5,,

Sequence,binding signal (ELK4),binding signal (ETV4),binding signal (ETV1),binding signal (ERF),binding signal (ELF1)
CTCGTA,1.16,1.25,1.35,1.23,1.32
TCTGCC,1.59,1.41,1.36,,
GTTTTC,0.997,1.23,1.13,1.34,
TTCACT,1.42,1.38,1.33,,
AACGTA,0.98,1.04,1.06,1.05,
GATTAT,1.06,0.998,1.06,1.06,1.02
CGTCTC,1.49,1.37,1.43,1.49,
AATAAT,1.22,1.29,1.24,,
ACTTTA,1.15,1.22,1.21,,
CCTAAA,1.29,1.26,1.31,,
ACCGAT,1.15,1.21,1.12,,1.17
TACTAG,0.976,1,0.902,,
GACCTT,1.61,1.69,1.48,,
GCCCCT,1.37,1.41,,1.27,
ATCGAA,1.14,1.1,,,1.14
GTAACT,1.26,1.15,,1.22,1.22
CCGCTA,1.3,1.33,,1.38,
TGGTTC,1.36,1.36,1.38,,1.28
CGATAC,1.15,1.14,,,1.19
ACTTCC,6.63,10,,7.03,
ATTGAT,1.38,1.24,,,1.31
CTGTTT,1.29,1.4,,1.37,
GCTATT,1.56,1.28,,,1.26

# An excerpt of these results, bar-delimited.
Sequence | binding signal (ELK4) | binding signal (ETV4) | binding signal (ETV1) | binding signal (ERF) | binding signal (ELF1)
AACGTA | 0.98 | 1.04 | 1.06 | 1.05 | 
GACCTT | 1.61 | 1.69 | 1.48 |  | 
CTGTTT | 1.29 | 1.4 |  | 1.37 | 
